Assay results: article PMC3871109
For at least one entry, the source does not settle the construct or the ends of the probe. At least one result comes from cells or an extract, where the contact may be indirect. No signal at the amounts used counts as a negative.

The chains behind the UniProt entries cited, without tags or fusion partners. Residues count along the entry.
UniProt P28908, 19-595: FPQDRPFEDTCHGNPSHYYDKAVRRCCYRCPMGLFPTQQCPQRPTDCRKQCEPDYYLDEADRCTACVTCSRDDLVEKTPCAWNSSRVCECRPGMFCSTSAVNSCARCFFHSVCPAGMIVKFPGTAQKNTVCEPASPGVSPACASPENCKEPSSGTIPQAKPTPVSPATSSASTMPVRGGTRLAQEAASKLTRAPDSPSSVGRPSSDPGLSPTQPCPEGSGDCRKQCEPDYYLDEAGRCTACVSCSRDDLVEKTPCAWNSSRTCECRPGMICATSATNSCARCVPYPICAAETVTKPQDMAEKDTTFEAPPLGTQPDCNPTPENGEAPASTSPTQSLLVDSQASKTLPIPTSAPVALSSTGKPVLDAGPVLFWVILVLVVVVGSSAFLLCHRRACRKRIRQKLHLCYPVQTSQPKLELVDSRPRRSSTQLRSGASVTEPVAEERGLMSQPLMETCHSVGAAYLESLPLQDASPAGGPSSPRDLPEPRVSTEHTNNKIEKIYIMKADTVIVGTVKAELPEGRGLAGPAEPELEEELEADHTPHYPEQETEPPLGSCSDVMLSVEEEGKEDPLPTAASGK

Target: CD30 (UniProt P28908)
Assay: competition (flow cytometry, HDLM2 cells)
Details: no competition with 10x unlabeled CD30 aptamer C2NP or with CD30 antibody, no binding to CD30+ K562 and H9 cells; Dulbecco's PBS with 4.5 g/L glucose, 5 mM MgCl2, 1 mg/mL BSA, 0.1 mg/mL tRNA; 1 h, room temperature; pH not stated; protein on the cell surface; label: 5' Cy3 (unlabeled in antibody competition); single-stranded DNA

Row | Sequence | binding result
1 | TAACTTTGAAGGAAAGGCTACAAACTCTTC [PS1NP] | no binding
2 | TACCAGTGCGATGCTCAGTAACTTTGAAGGAAAGGCTACAAACTCTTCCTGACGCATTCGGTTGAC [PS1] | no binding
